Experimental data published in PMC11707698, “Structure of an ex vivoDrosophila TOM complex determined by single-particle cryoEM” (IUCrJ, 2025).
No constants are given. Whether binding was seen depends on the method and setting. Binding seen in cells or lysates may run through a third protein. Here binding means that the protein was enriched with, or labelled near, the bait; the list need not be complete. Sequences can lack the tags named with a protein.

Target: T1, Drosophila Tom40 subunit fused to a C-terminal FLAG-HA epitope tag (D. melanogaster) (UniProt Q9U4L6)
T1 sequence: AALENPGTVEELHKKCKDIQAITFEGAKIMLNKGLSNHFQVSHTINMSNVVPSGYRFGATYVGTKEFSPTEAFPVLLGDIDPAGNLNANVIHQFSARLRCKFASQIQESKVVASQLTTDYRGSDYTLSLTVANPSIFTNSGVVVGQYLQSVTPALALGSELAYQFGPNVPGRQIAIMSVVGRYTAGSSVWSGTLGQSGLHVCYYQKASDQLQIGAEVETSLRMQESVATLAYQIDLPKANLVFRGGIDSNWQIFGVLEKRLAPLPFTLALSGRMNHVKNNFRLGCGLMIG
Experiment: affinity purification with mass spectrometry; Tom40-FLAG-HA held on anti-FLAG M2 beads from detergent-solubilised fly head membranes; 50 mM Tris-HCl pH 7.4, 150 mM NaCl; washes with 1 M urea and 500 mM NaCl; on-column exchange into non-ionic amphipol; elution with FLAG peptide; tryptic digest mass spectrometry of gel bands

**Q.** Which binding does the source give for “Tom7 (endogenous Drosophila TOM subunit)” here?
**A.** Its binding is “binds”.
